In patent EP1977765A1 (Diatos, priority 2007, dated 2008):
For some assays here: Strings that start with PEPTIDE1 are HELM notation: dots part the residues, brackets hold end groups and non-standard residues.

How the values were obtained:
[1] = general procedure: Fmoc solid-phase peptide synthesis; Wang resin; conditions: whole synthesis, 214 nm, scale of the general procedure 3.65 mmol
[2] = general procedure: Fmoc solid-phase peptide synthesis; Wang resin-Leu-Fmoc; conditions: late stage modification step, 214 nm

| Substance | crude HPLC purity [1] [%] | final HPLC purity [2] [%] |
| --- | --- | --- |
| Fmoc-Ala-Leu-Ala-Leu-OH (Fmoc-ALAL-OH) | 90 | – |
| PEPTIDE1{[Suc].[bAla].[LeuX].[AlaX].[LeuX].[Ptx2O]}$$$$V2.0 | – | 93 |
